Screening data, single-dose tests

From ChEMBL document CHEMBL3988442, “University of Dundee, Small-Polar-MMV Screening Library” (2021).

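Whole-cell growth test on Mycobacterium tuberculosis, read after 3 days in glucose-containing 7H9 medium; the read-out is not stated. Compounds at 50 µM. The record gives no direction; compounds that gave an IC50 in retests scored well above the rest, so higher reads as more growth inhibition. Size under these conditions: about 69,000 compounds, about 760 of them at 50% or above in at least one test.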

Results are given as percent effect. How 0% and 100% were set is not recorded. Most values in the screen are low, and negative values occur. Compounds were drawn at random from those tested, without regard to their results. Two or more numbers in one place are separate tests of the same structure; such repeats can differ widely.

Result for O=C(O)C(F)(F)F.O=S(=O)(C1CC1)N1CC[C@H](OCC2CC2)[C@@H]1Cc1cccnc1 was 16.42%. CCn1cnnc1CNC(=O)N1CCN(CC(C)C)CC1 gave -19.75%. For O=C(O)[C@@H]1CN(C(=O)NCC2CCCCC2)C[C@H]1c1ccccn1 the result was 27.77%. Result for CCc1cccc(NC(=O)CNc2ccccc2OCCC(=O)OC)c1 was -6.861% and -4.36%. COc1ccccc1CCNS(=O)(=O)N1CCOCC1 gave -26.45%. With COCCN1CCC12CCN(C(=O)c1ccsc1)CC2.O=C(O)C(F)(F)F the screen gave -4.424% and 9.335%. For O=C(c1ccc(F)cc1)N(CCCO)S(=O)(=O)c1cccs1 the result was 18.41%. For CCN1CCN(c2nsc(-c3cccnc3)c2C#N)CC1 the result was -13.16%.

With COc1ccc(C2CCCN2c2nnc(C)s2)c(OC)c1 (stereo unspecified) the screen gave 3.943%. Result for COc1ccccc1OCc1nc(C(C)C)no1 was 30.11%. Result for NC(=O)CN1CCCN(C(=O)c2ccn(-c3cccc(F)c3)n2)CC1 was -10.17% and -9.472%. With Cc1nc(CN2C(=O)CCC23CCN(c2ncccc2C)CC3)cs1 the screen gave -20.73%. With O=C(O)C(F)(F)F.[H][C@@]12CN(C(=O)c3cccn3C)C[C@]1([H])C(=O)N(Cc1csc(C)n1)C2 the screen gave -19.44%. Result for CCc1cc(O)n2nc(C3CCN(C(=O)c4ccccn4)CC3)cc2n1 was 12.82%. With CC(O)CN1CCC(CNCc2ccccc2C(F)(F)F)CC1 (stereo unspecified) the screen gave -4.955%. Cc1ccc(C(C(=O)O)N(C)CCCN2CCOCC2)c(C)c1 (stereo unspecified) read -28.93%.

With CN1CC(Oc2ccccc2)=NC(SCC(=O)Nc2ccc(Cl)cc2)=N1 the screen gave 23.34%. Result for Cc1nonc1CN(C)Cc1nc(-c2cccc(F)c2F)oc1C was 3.879%. With COc1ccc(C2(c3nc(-c4cccnc4)no3)CCOCC2)cc1 the screen gave -39.37%. For NC(=O)c1nc2c(s1)CCN(C(=O)Nc1cccc(Cl)c1)CC2 the result was 28.98%. For CCS(=O)(=O)N1CCOC2(CCCN(c3cnccn3)C2)C1.O=C(O)C(F)(F)F (stereo unspecified) the result was -1.424% and -3.375%. Cc1nc(-c2cc(C(=O)NC(C)(C(=O)O)C(C)C)co2)cs1 (stereo unspecified) read -2.326% and 0.9785%. With COc1cccc(C(C)Nc2ncnc3c2NC(=O)CN3)c1 (stereo unspecified) the screen gave 95.56%. Result for [H][C@]12CC[C@]([H])(CN(C(=O)COc3ccc(F)c(Cl)c3)C1)N(CCOC)C2=O was -12.66%.

For Cc1ccc(F)c2c1CCCN2CC(=O)NC1CCS(=O)(=O)C1 (stereo unspecified) the result was 8.495%. [H][C@@]12CS(=O)(=O)C[C@]1([H])N(C(=O)CCc1ccccc1)CCN2C(=O)N(C)C read -18.04%. CC(=O)N1CCCc2sc(C(=O)NC3CC3)nc21 read 1.917% and 28.35%. For CN(Cc1ccsc1)C(=O)c1cccc(F)c1 the result was -7.312%. For O=C(CN1CCCC1Cn1cncn1)NCC1(c2ccccc2)CC1 (stereo unspecified) the result was 35.27%. O=C(c1cccs1)N1CCCn2c(nc(CN3CCCC3)cc2=O)C1 read -33.22% and -2.43%. Result for COCC1COCCC12CCN(C(=O)CC1=CCCCC1)CC2 (stereo unspecified) was -30.68% and -2.351%. With Cc1ccc(F)c(S(=O)(=O)NCc2[nH]ncc2Br)c1 the screen gave -21.44%.

With Cc1nc(C)n(CC2CCCN2Cc2cccc3c2OCCO3)n1 (stereo unspecified) the screen gave 19.51%. For Cc1cccc(C(C)(C)CNc2cn[nH]c(=O)c2Cl)c1 the result was 13.62% and -24.47%. With [H][C@@]12CN(Cc3cccnc3)CCO[C@]1([H])CN(C(=O)c1ncccn1)C2 the screen gave 10.82%. Result for CCOc1cc(=O)n2c(c1C(=O)OCc1cccc(C)c1)CCCC2 was 19.36%. Result for O=C(NCCCc1ccncc1)C1CCCN(Cc2ccco2)C1 (stereo unspecified) was -18.49%. Result for COc1ccc(-c2nc(CCNc3nnc(C)c(C)c3C#N)co2)cc1 was 18.11%. Result for CC(NCC(=O)N(C)C1CC1)c1ccc(S(C)(=O)=O)c(F)c1 (stereo unspecified) was 5.283%. COCc1nc2ncc3c(=O)n(-c4ccc(C(C)=O)cc4)ccc3n2n1 read 8.069%.

CN1CCOC(CNCC(=O)NCCc2ccc3c(c2)OCCO3)C1 (stereo unspecified) gave -24.42%. Result for COC1CCN(C(=O)Cc2csc(-c3ncccn3)n2)CC1 was -16.24%. Result for COc1cc(C)nc(N2CCN(C(=O)COCC(F)(F)F)CC2)n1 was -20.46%. COc1ncccc1CNC(=O)c1cc(C)on1 gave 13.76%. CCOc1ccccc1-c1cc(N)[nH]n1.Cl gave -7.896%. For Cc1cc(F)ccc1-c1cc(NCCO)nc2[nH]ccc12 the result was 20.86%. With CCc1nc(CN2CCN(C(=O)C3CCCCC3)CC2)cs1 the screen gave -17.45%. CCc1cn[nH]c1C1CCN(C(=O)c2cc(C#N)c(=O)[nH]c2C)CC1 gave -29.98%.

Cc1noc(C)c1CS(=O)(=O)CC(=O)N1CCc2sccc2C1 gave 1.17%. With Cc1nn(C)c(C)c1C1CCCN1C(=O)CCc1ccco1 (stereo unspecified) the screen gave 8.647%. With O=C(O)C(=O)O.c1cnc(-c2noc(C3CN(Cc4ccc5c(c4)CCO5)C3)n2)nc1 the screen gave -0.3354% and 2.896%. For Cc1nc(C)n(CC2CCCN2Cc2nc(-c3ccoc3)no2)n1 (stereo unspecified) the result was 21.81%.

Some entries from above, unchanged:

Compound,Percent Effect
Cc1nc(C)n(CC2CCCN2Cc2nc(-c3ccoc3)no2)n1 (stereo unspecified),21.81
Cc1ccc(F)c(S(=O)(=O)NCc2[nH]ncc2Br)c1,-21.44
CCOc1cc(=O)n2c(c1C(=O)OCc1cccc(C)c1)CCCC2,19.36